Results deposited as PubChem BioAssay AID493246 (Drosophila RNAi Screening Center, 2011)

- Purpose: 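Identify essential fly genes by loss of cell viability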 (primary screen)
- Cell system: Drosophila Kc and S2R+ cells
- Knock-down reagent: long dsRNA against Drosophila genes
- Detection: 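Cell number per well after knock-down, printed as raw plate values; calls were based on per-plate z-scores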
- Reading the numbers: Kc cell number and S2R+ cell number: higher = more cells remaining
- Active means: 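Active when the per-plate z-score of cell number is 3 or more in the direction of fewer cells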
The deposit covers about 21,000 reagents; below is an unselected part of those with a known target gene and a result. In the full data, 429 (2%) got an active call. 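Values are raw and not normalised between plates; calls rest on per-plate z-scores that were not deposited.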 A number with no mark means an inactive call. The numbers tell different reagents against one gene apart. A plus sign joins genes that one reagent is predicted to hit. The record does not give: the amount of reagent, the time to read-out.

For Trs23 (GeneID 34197), the values are Kc cell number, rep 1 = 1.68e6; Kc cell number, rep 2 = 1.77e6; S2R+ cell number, rep 1 = 1.32e6; S2R+ cell number, rep 2 = 1.56e6.
For Sb (GeneID 41958), the values are Kc cell number, rep 1 = 1.33e6; Kc cell number, rep 2 = 1.52e6; S2R+ cell number, rep 1 = 1.20e6; S2R+ cell number, rep 2 = 1.36e6.
For ND-MNLL (GeneID 31697), the values are Kc cell number, rep 1 = 1.52e6; Kc cell number, rep 2 = 1.49e6; S2R+ cell number, rep 1 = 9.22e5; S2R+ cell number, rep 2 = 1.04e6.
After knock-down of CG4496 (GeneID 34000) the results were Kc cell number, rep 1 = 1.52e6; Kc cell number, rep 2 = 1.41e6; S2R+ cell number, rep 1 = 1.16e6; S2R+ cell number, rep 2 = 1.35e6.
After knock-down of CG13315 (GeneID 50300), the record shows Kc cell number, rep 1 = 1.67e6; Kc cell number, rep 2 = 1.58e6; S2R+ cell number, rep 1 = 1.11e6; S2R+ cell number, rep 2 = 1.09e6.
For Blos1 (GeneID 246439), the values are Kc cell number, rep 1 = 1.54e6; Kc cell number, rep 2 = 1.67e6; S2R+ cell number, rep 1 = 1.37e6; S2R+ cell number, rep 2 = 1.53e6.
Against CG13036 (retired record) (GeneID 39823), the values are Kc cell number, rep 1 = 1.46e6; Kc cell number, rep 2 = 1.44e6; S2R+ cell number, rep 1 = 1.16e6; S2R+ cell number, rep 2 = 1.34e6.
Against CG15099 (GeneID 37176), the values are Kc cell number, rep 1 = 1.25e6; Kc cell number, rep 2 = 1.32e6; S2R+ cell number, rep 1 = 1.03e6; S2R+ cell number, rep 2 = 1.10e6.
Depletion of CG17996 + Tsen2 resulted in: Kc cell number, rep 1 = 1.45e6; Kc cell number, rep 2 = 1.61e6; S2R+ cell number, rep 1 = 1.23e6; S2R+ cell number, rep 2 = 1.34e6.
For Atg9 (GeneID 36821), the entry reads Kc cell number, rep 1 = 1.31e6; Kc cell number, rep 2 = 1.36e6; S2R+ cell number, rep 1 = 1.25e6; S2R+ cell number, rep 2 = 1.23e6.
For CHKov1 (GeneID 43067) #1, the values are Kc cell number, rep 1 = 1.48e6; Kc cell number, rep 2 = 1.53e6; S2R+ cell number, rep 1 = 9.18e5; S2R+ cell number, rep 2 = 1.05e6.
Depletion of CHKov1 (GeneID 43067) #2 gave: Kc cell number, rep 1 = 1.37e6; Kc cell number, rep 2 = 1.45e6; S2R+ cell number, rep 1 = 8.63e5; S2R+ cell number, rep 2 = 1.09e6.
Knock-down of CHKov1 (GeneID 43067) #3 gave: Kc cell number, rep 1 = 1.83e6; Kc cell number, rep 2 = 1.79e6; S2R+ cell number, rep 1 = 1.03e6; S2R+ cell number, rep 2 = 1.19e6.
Against CHKov1 (GeneID 43067) #4, the entry reads Kc cell number, rep 1 = 1.45e6; Kc cell number, rep 2 = 1.54e6; S2R+ cell number, rep 1 = 1.11e6; S2R+ cell number, rep 2 = 1.13e6.
Depletion of Cph (GeneID 31660) #1 came out at: Kc cell number, rep 1 = 1.40e6; Kc cell number, rep 2 = 1.51e6; S2R+ cell number, rep 1 = 1.08e6; S2R+ cell number, rep 2 = 1.11e6.
Silencing of Cph (GeneID 31660) #2 came out at: Kc cell number, rep 1 = 1.51e6; Kc cell number, rep 2 = 1.49e6; S2R+ cell number, rep 1 = 1.05e6; S2R+ cell number, rep 2 = 1.15e6.
abd-A (GeneID 42037) #1 showed Kc cell number, rep 1 = 1.54e6; Kc cell number, rep 2 = 1.66e6; S2R+ cell number, rep 1 = 8.75e5; S2R+ cell number, rep 2 = 9.60e5.
abd-A (GeneID 42037) #2 scored Kc cell number, rep 1 = 2.90e5 (active); Kc cell number, rep 2 = 2.73e5; S2R+ cell number, rep 1 = 3.62e5; S2R+ cell number, rep 2 = 4.22e5.
ro (GeneID 43234) gave Kc cell number, rep 1 = 1.64e6; Kc cell number, rep 2 = 1.72e6; S2R+ cell number, rep 1 = 8.98e5; S2R+ cell number, rep 2 = 1.07e6.
Knock-down of bark (GeneID 33604) resulted in: Kc cell number, rep 1 = 1.58e6; Kc cell number, rep 2 = 1.54e6; S2R+ cell number, rep 1 = 1.20e6; S2R+ cell number, rep 2 = 1.39e6.
CG4511 (GeneID 41305) scored Kc cell number, rep 1 = 1.44e6; Kc cell number, rep 2 = 1.49e6; S2R+ cell number, rep 1 = 1.31e6; S2R+ cell number, rep 2 = 1.39e6.
CG17778 (GeneID 30996) gave Kc cell number, rep 1 = 1.69e6; Kc cell number, rep 2 = 1.60e6; S2R+ cell number, rep 1 = 9.78e5; S2R+ cell number, rep 2 = 1.13e6.
CycC (GeneID 41801) showed Kc cell number, rep 1 = 1.65e6; Kc cell number, rep 2 = 1.65e6; S2R+ cell number, rep 1 = 1.24e6; S2R+ cell number, rep 2 = 1.27e6.
Silencing of CR18228 (GeneID 8674096) gave: Kc cell number, rep 1 = 1.65e6; Kc cell number, rep 2 = 1.78e6; S2R+ cell number, rep 1 = 1.34e6; S2R+ cell number, rep 2 = 1.55e6.
AGO2 (GeneID 39683) #1 scored Kc cell number, rep 1 = 1.20e6; Kc cell number, rep 2 = 1.22e6; S2R+ cell number, rep 1 = 8.68e5; S2R+ cell number, rep 2 = 9.95e5.
With knock-down of AGO2 (GeneID 39683) #2, the record shows Kc cell number, rep 1 = 1.43e6; Kc cell number, rep 2 = 1.44e6; S2R+ cell number, rep 1 = 9.86e5; S2R+ cell number, rep 2 = 1.09e6.
CG31743 + CG34313 #1 gave Kc cell number, rep 1 = 1.37e6; Kc cell number, rep 2 = 1.47e6; S2R+ cell number, rep 1 = 1.38e6; S2R+ cell number, rep 2 = 1.28e6.
Against CG31743 + CG34313 #2, the entry reads Kc cell number, rep 1 = 1.70e6; Kc cell number, rep 2 = 1.88e6; S2R+ cell number, rep 1 = 1.19e6; S2R+ cell number, rep 2 = 1.27e6.

Limited to “Kc cell number, rep 2” (4 entries from above):
Cph (GeneID 31660) #2: 1.49e6
abd-A (GeneID 42037) #1: 1.66e6
abd-A (GeneID 42037) #2: 2.73e5 (active)
ro (GeneID 43234): 1.72e6
